# PubChem BioAssay AID2685 (National Center for Advancing Translational Sciences (NCATS), 2010)
# This is one part of the list. Further columns of the screen follow, without active or inactive calls. Compounds called inactive in the main read-out are mostly missing here. Words in brackets tell the shape of the fitted curve; partial curves, single points and poor fits give uncertain potencies.
# Assay: qHTS Assay for Lipid Storage Modulators in Drosophila S3 Cells;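 for cell number change: cells counted by Cell Tracker Red CMTPX staining in the red channel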
# Settings: BODIPY lipid droplet fluorescence, 18-24 h; for cell number change: measured here: cell count max response, cells fed with added oleic acid
# In short: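 Drosophila S3 cells got compounds at several concentrations plus oleic acid (400 uM solution). Laser-scanning cytometry with 488 nm excitation read lipid droplets at 500-530 nm and cells at 575-640 nm. Percent activity was relative to 20 uM Triacsin C.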
# [1] = measured here: lipid fluorescence (Fed channel) AC50, cells fed with added oleic acid
# [2] = measured here: cell number channel AC50, cells fed with added oleic acid
Structure (SMILES),AC50 [1],cell number change,AC50 [2]
COC(=O)c1cc(Nc2cc(C)c3c(O)cccc3n2)cc(C(=O)OC)c1,"29100 nM [rising, single point]",,
COc1cccc(C(=O)CSc2nnc(CNc3nc(-c4ccccc4)cs3)n2C)c1,"13000 nM [rising, partial curve]",56.1%,"8200 nM [rising, partial curve]"
CC(C)(C)C(=O)Nc1cccc(S(=O)(=O)NC2=NCCC2)c1,"1460 nM [falling, partial curve]",-28.7%,"231 nM [falling, full curve]"
Cc1cc(Nc2cccc(Cl)c2)nc(N2CCOCC2)n1,"2060 nM [rising, partial curve]",-5.53%,
Cc1noc(C)c1C(=O)Nc1nc(C23CC4CC(CC(C4)C2)C3)cs1,"29100 nM [rising, single point]",-5.48%,
Cc1cc(C)n(CCC(=O)N/N=C/c2ccc(Cl)c([N+](=O)[O-])c2)n1,"2310 nM [rising, partial curve, poor fit]",20.8%,"1840 nM [rising, partial curve, poor fit]"
Cc1noc(C)c1S(=O)(=O)N1CCCC(C(=O)NCc2ccccc2Cl)C1 (stereo not drawn),"326 nM [falling, partial curve, poor fit]",5.65%,
Cc1ccnc(SCC(=O)O)n1,"1300 nM [falling, full curve]",-2.31%,
CSc1nc(N(C)C)c2ccccc2n1,,125%,
CC(=O)c1ccc(-c2ccc(C(=O)NCC3CCCO3)o2)cc1 (stereo not drawn),"6510 nM [rising, single point]",30.6%,"3260 nM [rising, partial curve]"
COc1ccc(N2CCN(C(=O)COc3ccc(Cl)cc3Cl)CC2)cc1,"2310 nM [rising, full curve]",59.5%,"2310 nM [rising, full curve]"
O=c1c(Cc2ccc(F)cc2)c(O)ccn1CC1CCCO1 (stereo not drawn),"3660 nM [rising, full curve]",35.8%,"103 nM [rising, full curve]"
CCn1c(=O)c(=O)[nH]c2cc(C(=O)N3CCN(c4ccccc4F)CC3)ccc21,"651 nM [falling, single point]",,
CC(C)(C)n1nnnc1C(c1cccc(C#N)c1)N1CCCc2ccccc21 (stereo not drawn),"4110 nM [rising, full curve, poor fit]",5.67%,
CC1(C)CC(=O)c2sc(NC(=O)c3ccco3)nc2C1,"731 nM [falling, single point]",-18.5%,

# Grouped by structure: the entries above with fluorine.
Structure (SMILES),AC50 [1],cell number change,AC50 [2]
O=c1c(Cc2ccc(F)cc2)c(O)ccn1CC1CCCO1 (stereo not drawn),"3660 nM [rising, full curve]",35.8%,"103 nM [rising, full curve]"
CCn1c(=O)c(=O)[nH]c2cc(C(=O)N3CCN(c4ccccc4F)CC3)ccc21,"651 nM [falling, single point]",,
